From publication PMC3464206
Results are given in words; binding and its absence hold for the method and conditions named. In cells and extracts the contact can be indirect. Some entries that bind do so weakly or less than the wild type.

Protein sequences, listed by entry. Tags and fused reporters are not part of them.
UniProt P48722: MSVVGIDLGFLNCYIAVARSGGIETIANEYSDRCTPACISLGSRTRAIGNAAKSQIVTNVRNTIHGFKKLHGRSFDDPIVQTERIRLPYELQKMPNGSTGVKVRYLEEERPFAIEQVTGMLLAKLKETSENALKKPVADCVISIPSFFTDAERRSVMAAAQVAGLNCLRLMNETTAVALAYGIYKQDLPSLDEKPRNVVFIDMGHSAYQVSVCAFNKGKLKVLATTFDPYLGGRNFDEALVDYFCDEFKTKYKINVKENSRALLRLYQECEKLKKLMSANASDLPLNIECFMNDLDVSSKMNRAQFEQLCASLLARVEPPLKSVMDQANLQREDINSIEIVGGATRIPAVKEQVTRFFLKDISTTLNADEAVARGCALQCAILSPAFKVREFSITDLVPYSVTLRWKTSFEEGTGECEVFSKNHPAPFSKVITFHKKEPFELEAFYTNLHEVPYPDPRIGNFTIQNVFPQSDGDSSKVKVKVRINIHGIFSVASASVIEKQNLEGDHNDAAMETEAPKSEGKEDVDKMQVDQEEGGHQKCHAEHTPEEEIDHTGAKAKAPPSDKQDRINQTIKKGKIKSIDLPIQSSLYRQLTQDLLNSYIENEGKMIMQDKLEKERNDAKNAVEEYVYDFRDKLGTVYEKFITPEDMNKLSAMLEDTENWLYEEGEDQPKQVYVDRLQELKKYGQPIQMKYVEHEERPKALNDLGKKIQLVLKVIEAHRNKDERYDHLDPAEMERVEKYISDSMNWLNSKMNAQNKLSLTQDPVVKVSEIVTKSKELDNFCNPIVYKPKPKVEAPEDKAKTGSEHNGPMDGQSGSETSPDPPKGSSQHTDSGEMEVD
UniProt P00342: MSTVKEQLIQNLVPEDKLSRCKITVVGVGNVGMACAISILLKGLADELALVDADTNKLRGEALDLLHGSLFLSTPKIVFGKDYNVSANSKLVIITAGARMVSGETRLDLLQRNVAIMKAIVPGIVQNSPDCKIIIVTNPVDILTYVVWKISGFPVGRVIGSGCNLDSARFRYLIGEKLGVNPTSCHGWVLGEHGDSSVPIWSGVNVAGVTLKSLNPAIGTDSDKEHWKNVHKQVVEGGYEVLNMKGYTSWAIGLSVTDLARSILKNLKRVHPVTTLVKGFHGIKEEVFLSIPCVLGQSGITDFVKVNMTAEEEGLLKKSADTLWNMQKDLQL

Target: T1, recombinant RABL2 (isoform 2), conjugated to agarose (mouse) (UniProt E9Q9D5)
T1 sequence: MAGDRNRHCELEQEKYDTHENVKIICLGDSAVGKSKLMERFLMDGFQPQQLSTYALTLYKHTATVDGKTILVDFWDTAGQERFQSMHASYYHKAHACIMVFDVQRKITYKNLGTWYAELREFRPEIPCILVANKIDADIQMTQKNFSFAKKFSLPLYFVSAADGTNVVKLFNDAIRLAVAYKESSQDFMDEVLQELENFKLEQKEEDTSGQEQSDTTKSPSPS
Experiment: pull-down; additional GTP-RABL2 and GDP-RABL2 affinity column eluates from adult mouse testis extracts, Western blotting for candidate effector proteins; only the target purified

HSPA4L (from UniProt P48722 1-838)
binding: binds

LDHC (from UniProt P00342 1-332)
binding: binds
